Source: patent US20240417747A1 (priority 2021, published 2024)
For at least one compound, name, drawing or mass did not settle the structure.

System: HLB positive C. sinensis 'Valencia' trees
Assay type: in vivo, Citrus sinensis
Settings: uric acid 1.8 mM, rutin 0.6 mM

SMILES: C[C@@H]1O[C@@H](OC[C@H]2O[C@@H](Oc3c(-c4ccc(O)c(O)c4)oc4cc(O)cc(O)c4c3=O)[C@H](O)[C@@H](O)[C@@H]2O)[C@H](O)[C@H](O)[C@H]1O [rutin]
- HLB symptoms compared with before treatment (six weeks after first weekly foliar spray, GA): significantly reduced
- H2O2 concentration in exudates of phloem-enriched bark tissues (weekly foliar spray, six weeks): reduce
- cell death (ion leakage) in exudates of phloem-enriched bark tissues (weekly foliar spray, six weeks): reduce
